Where a name gives a salt, the structure may show the parent alone. The list shows a part of the results. Single values are uncertain here, since repeats match poorly.
Test system: MDA-MB-468
Test: phospho-S6 immunofluorescence (DAPI-normalised), per-plate z-score; higher = higher phospho-S6 signal (less pathway suppression)
Conditions: 24 h
Description: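 GPCR-targeted compound library (MedChemExpress HY-L006) tested on MDA-MB-468 PTEN-null TNBC cells in 384-well plates at 0.1, 1 or 10 uM, combined with vehicle, GDC0941 450 nM or lapatinib 1 uM, for 24 h. Phospho-S6 (S240/244) immunofluorescence normalised to DAPI and expressed as a per-plate z-score; values are the mean of biological triplicates.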

[1] = compound 0.1 µM, co-treatment: GDC0941 450 nM
[2] = compound 0.1 µM, co-treatment: lapatinib 1 uM
[3] = compound 0.1 µM, co-treatment: vehicle
[4] = compound 1 µM, co-treatment: GDC0941 450 nM
[5] = compound 1 µM, co-treatment: lapatinib 1 uM
[6] = compound 1 µM, co-treatment: vehicle
[7] = compound 10 µM, co-treatment: GDC0941 450 nM
[8] = compound 10 µM, co-treatment: lapatinib 1 uM
[9] = compound 10 µM, co-treatment: vehicle

Row | Compound | phospho-S6 immunofluorescence (z-score) [1] | phospho-S6 immunofluorescence (z-score) [2] | phospho-S6 immunofluorescence (z-score) [3] | phospho-S6 immunofluorescence (z-score) [4] | phospho-S6 immunofluorescence (z-score) [5] | phospho-S6 immunofluorescence (z-score) [6] | phospho-S6 immunofluorescence (z-score) [7] | phospho-S6 immunofluorescence (z-score) [8] | phospho-S6 immunofluorescence (z-score) [9]
1 | COc1ccc(CC(C)NCC(O)c2ccc(O)c(NC=O)c2)cc1 (stereo unspecified) [Formoterol (Fumarate)] | 0.28 | 0.73 | 0.44 | 1.53 | 2.91 | 0.58 | 1.08 | 0.77 | 0.16
2 | CC#C[C@]1(O)CC[C@H]2[C@@H]3CCC4=CC(=O)CCC4=C3[C@@H](c3ccc(N(C)C)cc3)C[C@@]21C [Mifepristone] | 0.03 | 0.61 | 0.28 | -0.5 | -0.59 | 0.7 | -2.47 | 1.14 | -0.01
3 | CN1N=C2CCN(C(=O)[C@@H](COCc3ccccc3)NC(=O)C(C)(C)N)C[C@@]2(Cc2ccccc2)C1=O [Capromorelin (Tartrate)] | 0.08 | 0.16 | 0.34 | 0.54 | -0.02 | 0.17 | -0.05 | -0.67 | -0.14
4 | O=C(C[S+]([O-])Cc1ccco1)NC/C=C\COc1cc(CN2CCCCC2)ccn1 (stereo unspecified) [Lafutidine] | 0.76 | -0.25 | -0.22 | 0.37 | -0.3 | 0 | -0.67 | 0.02 | -0.32
5 | CCC(=O)OCC(=O)[C@@]1(OC(=O)CC)[C@@H](C)C[C@H]2[C@@H]3CCC4=CC(=O)C=C[C@]4(C)[C@@]3(F)[C@@H](O)C[C@@]21C [Betamethasone dipropionate] | 0 | 1.29 | 2.44 | -0.76 | 1.54 | 2.21 | -0.51 | -0.45 | 0.82
6 | CC1=C(C)C(=O)C(C(CCCCCC(=O)O)c2ccccc2)=C(C)C1=O (stereo unspecified) [Seratrodast] | -0.75 | -0.43 | 0.07 | -0.7 | 0.01 | 0.02 | 1.01 | 1.15 | 0.08
7 | C[N+]1(C)[C@@H]2C[C@@H](OC(=O)C(O)(c3cccs3)c3cccs3)C[C@H]1[C@@H]1O[C@@H]12 [Tiotropium (Bromide)] | -0.5 | -0.48 | -0.23 | -0.28 | -0.19 | -0.32 | -0.58 | 0.42 | -0.69
8 | C#CCOc1ccc2c(c1)c(-c1ccc(C(C)C)cc1)nc(=O)n2C(C)C [Calcium-Sensing Receptor Antagonists I] | 0.24 | 0.58 | 0.2 | 1.03 | -0.07 | 0.49 | -3.51 | -4.39 | -4.18
9 | CC(C)c1cc(-c2ccc(F)c3ccccc23)nc(N)n1 | -0.08 | -0.27 | 0.58 | 0.05 | 1.62 | 0.09 | -1.03 | 1.27 | 1.08
10 | CCN(CC)CCNC(=O)c1cc(Cl)c(N)cc1OC [Metoclopramide (hydrochloride hydrate)] | 0.06 | -0.2 | 0.35 | -0.39 | 0.37 | -0.45 | -0.35 | 0.77 | 0.05
11 | O=C(O[C@@H]1C[C@@H]2C[C@H]3C[C@H](C1)N2CC3=O)c1c[nH]c2ccccc12 [Dolasetron] | 1.38 | 0.67 | -0.48 | -0.26 | -0.12 | -0.71 | -0.34 | -0.11 | -0.46
12 | C[C@]12CCC(=O)C=C1CC[C@@H]1[C@@H]2CC[C@@]2(C)[C@H]1CC[C@]2(O)C(=O)CO [Cortodoxone] | 0.33 | 0.09 | -1.17 | -0.56 | 1.18 | -1.94 | -0.95 | 1.37 | -0.43
13 | Cc1nccn1CC1CCc2c(c3ccccc3n2C)C1=O (stereo unspecified) [Ondansetron (hydrochloride dihydrate)] | 0.9 | -1.09 | -0.06 | 0.16 | 0.19 | -0.36 | 0.11 | -0.58 | 0.16
14 | Cc1cncc(CN2CCC(=C3c4ccc(Cl)cc4CCc4cccnc43)CC2)c1 [Rupatadine (Fumarate)] | -0.59 | 0.14 | -2.36 | -0.78 | 0.46 | -1.24 | -1.47 | -2.09 | -1.45
15 | CN(C)CCCN1c2ccccc2Sc2ccc(Cl)cc21 [Chlorpromazine (hydrochloride)] | 0.03 | -0.04 | 0.81 | 0.64 | 0.1 | 1.27 | 0.58 | -1.09 | 3.4
16 | C[C@H](NC(=O)c1cc(Cl)ccc1Oc1ccc(F)cc1)c1ccc(C(=O)O)cc1 | 0.95 | 0.72 | 0.69 | 0.54 | 0.3 | 0.73 | -0.64 | 0.18 | 0.3
17 | CC(C)Oc1ccc(-c2nc(-c3cccc4c3CC[C@@H]4NCCO)no2)cc1C#N [Ozanimod] | -1.63 | -0.18 | 0.23 | -1.04 | 0.97 | 0.48 | 0.72 | -0.62 | -0.3
18 | O=C(c1ccc(F)cc1)N1CCC[C@H](c2nc(-c3ccc(F)cc3)no2)C1 | -0.13 | -1.03 | -0.15 | -0.86 | -0.26 | 0.26 | -2.64 | -3.29 | -2.93
19 | COc1ccc(CNC(=O)c2sc3nc(C)cc(C)c3c2N)cc1 | -0.46 | -0.73 | -1.42 | 0.21 | 1.61 | 0.39 | -1.98 | 1.66 | 0.34
20 | CCCCc1nc(C)c(CC(=S)N(C)C)c(=O)n1Cc1ccc(-c2ccccc2-c2nnn[nH]2)cc1 [Fimasartan] | 0.45 | 1.11 | 0.18 | -0.34 | 0.41 | -0.62 | 0.34 | 1.66 | -0.04

A section from the list above:
Row | Compound | phospho-S6 immunofluorescence (z-score) [1] | phospho-S6 immunofluorescence (z-score) [2] | phospho-S6 immunofluorescence (z-score) [3] | phospho-S6 immunofluorescence (z-score) [4] | phospho-S6 immunofluorescence (z-score) [5] | phospho-S6 immunofluorescence (z-score) [6] | phospho-S6 immunofluorescence (z-score) [7] | phospho-S6 immunofluorescence (z-score) [8] | phospho-S6 immunofluorescence (z-score) [9]
8 | C#CCOc1ccc2c(c1)c(-c1ccc(C(C)C)cc1)nc(=O)n2C(C)C [Calcium-Sensing Receptor Antagonists I] | 0.24 | 0.58 | 0.2 | 1.03 | -0.07 | 0.49 | -3.51 | -4.39 | -4.18
9 | CC(C)c1cc(-c2ccc(F)c3ccccc23)nc(N)n1 | -0.08 | -0.27 | 0.58 | 0.05 | 1.62 | 0.09 | -1.03 | 1.27 | 1.08
10 | CCN(CC)CCNC(=O)c1cc(Cl)c(N)cc1OC [Metoclopramide (hydrochloride hydrate)] | 0.06 | -0.2 | 0.35 | -0.39 | 0.37 | -0.45 | -0.35 | 0.77 | 0.05
11 | O=C(O[C@@H]1C[C@@H]2C[C@H]3C[C@H](C1)N2CC3=O)c1c[nH]c2ccccc12 [Dolasetron] | 1.38 | 0.67 | -0.48 | -0.26 | -0.12 | -0.71 | -0.34 | -0.11 | -0.46
12 | C[C@]12CCC(=O)C=C1CC[C@@H]1[C@@H]2CC[C@@]2(C)[C@H]1CC[C@]2(O)C(=O)CO [Cortodoxone] | 0.33 | 0.09 | -1.17 | -0.56 | 1.18 | -1.94 | -0.95 | 1.37 | -0.43
13 | Cc1nccn1CC1CCc2c(c3ccccc3n2C)C1=O (stereo unspecified) [Ondansetron (hydrochloride dihydrate)] | 0.9 | -1.09 | -0.06 | 0.16 | 0.19 | -0.36 | 0.11 | -0.58 | 0.16
14 | Cc1cncc(CN2CCC(=C3c4ccc(Cl)cc4CCc4cccnc43)CC2)c1 [Rupatadine (Fumarate)] | -0.59 | 0.14 | -2.36 | -0.78 | 0.46 | -1.24 | -1.47 | -2.09 | -1.45
15 | CN(C)CCCN1c2ccccc2Sc2ccc(Cl)cc21 [Chlorpromazine (hydrochloride)] | 0.03 | -0.04 | 0.81 | 0.64 | 0.1 | 1.27 | 0.58 | -1.09 | 3.4

(more compounds)

Row | Compound | phospho-S6 immunofluorescence (z-score) [1] | phospho-S6 immunofluorescence (z-score) [2] | phospho-S6 immunofluorescence (z-score) [3] | phospho-S6 immunofluorescence (z-score) [4] | phospho-S6 immunofluorescence (z-score) [5] | phospho-S6 immunofluorescence (z-score) [6] | phospho-S6 immunofluorescence (z-score) [7] | phospho-S6 immunofluorescence (z-score) [8] | phospho-S6 immunofluorescence (z-score) [9]
21 | c1ccc(CN(CC2=NCCN2)c2ccccc2)cc1 [Antazoline (hydrochloride)] | 0.54 | -0.07 | 0.79 | 0.15 | 0.63 | 0.68 | 0.27 | 0.23 | 1.23
22 | CC(COc1ccccc1)N(CCCl)Cc1ccccc1 (stereo unspecified) [Phenoxybenzamine (hydrochloride)] | -0.05 | -1.29 | 0.28 | 0.5 | 0.82 | -0.12 | 0.33 | -0.04 | 0.39
23 | COc1cc2nc(C3CC3)nc(N3CCN(c4ccccc4OC)CC3)c2cc1OC | 0.41 | 0.54 | 1.3 | 0.09 | -0.51 | 0.98 | -1.77 | -0.08 | 0.05
24 | c1cnc(NCc2ccc(CNc3ncccn3)cc2)nc1 | 0.6 | -0.69 | -0.58 | -0.26 | -0.6 | -1.29 | -0.12 | -0.26 | -0.11
25 | CC1(C)O[C@@H]2C[C@H]3[C@@H]4C[C@H](F)C5=CC(=O)C=C[C@]5(C)[C@@]4(F)[C@@H](O)C[C@]3(C)[C@]2(C(=O)CO)O1 [Fluocinolone (Acetonide)] | -1.34 | -0.12 | 1.17 | -2.21 | 0.7 | 0.44 | -0.92 | 0.83 | -0.53
26 | NC(=O)[C@@H]1CCCC[C@@H]1C(=O)Nc1ccc(Cl)c(Cl)c1 | -0.07 | -0.24 | 0.81 | 0.05 | 0.9 | 0.57 | 0.33 | -0.14 | 0.47
27 | CC(C)NCC(O)COc1cccc2ccccc12 (stereo unspecified) [Propranolol (hydrochloride)] | -1.17 | -0.78 | -0.6 | -1.42 | 1.12 | 0.09 | 0.53 | 0.73 | 0.21
28 | COc1cc(C(=O)N(CCCc2ccccc2)Cc2ccc(CC(=O)O)cc2)cc(OC)c1C | -1.21 | -0.81 | -1.2 | -1 | -0.16 | -1.08 | -0.21 | 0.49 | -0.17
29 | CN1CCN(c2cc(-c3ccccc3)nc(N)n2)CC1 | 0.92 | 0.56 | -0.46 | 0.11 | 0.29 | 0.36 | 0.39 | 0.06 | 1.14
30 | CC(=O)OC(C)C[N+](C)(C)C (stereo unspecified) [Methacholine (chloride)] | 0.27 | 0.51 | 1.06 | -0.82 | 0.49 | 0.87 | 0.63 | 0.47 | 1
31 | O=C1c2cccc3c2[C@H](CCC3)CN1[C@@H]1CN2CCC1CC2 [Palonosetron (Hydrochloride)] | -0.56 | 0.67 | 0.62 | -0.23 | 1.2 | -0.84 | -0.7 | 0.4 | -0.33
32 | C[C@@H](O[C@H]1OCCN(Cc2nn(P(=O)(O)O)c(=O)[nH]2)[C@H]1c1ccc(F)cc1)c1cc(C(F)(F)F)cc(C(F)(F)F)c1 [Fosaprepitant (dimeglumine)] | -1.13 | -0.41 | 0.28 | -1.24 | -1.12 | -0.4 | -2.28 | -0.65 | 0.39
33 | CC1(C)O[C@@H]2[C@@H](CO[C@@]3(COS(N)(=O)=O)OC(C)(C)O[C@@H]23)O1 [Topiramate] | 0.47 | -1.35 | 0.15 | -0.69 | -0.4 | -0.41 | -0.24 | 0.19 | -0.31
34 | Oc1cc2c(cc1O)C(c1ccccc1)CNCC2 (stereo unspecified) | 0.22 | 0.66 | -0.01 | 1.17 | -0.26 | 0.97 | 0.77 | 0.35 | 1.06
35 | CC(C)Cc1ccc([C@@H](C)C(=O)NS(C)(=O)=O)cc1 [Reparixin (L-lysine salt)] | -0.42 | -0.03 | -0.18 | -0.91 | -1.47 | -1.42 | -1.6 | -1.46 | -0.67
36 | CCCCc1oc2ccc(NS(C)(=O)=O)cc2c1C(=O)c1ccc(OCCCN(CCCC)CCCC)cc1 [Dronedarone] | -0.01 | -0.43 | 0.44 | 0.61 | -3.52 | 0.19 | -3.7 | -8.99 | -9.98
37 | C[C@]12C=CC(=O)C=C1CC[C@H]1[C@@H]3C[C@@H](O)[C@](O)(C(=O)CO)[C@@]3(C)C[C@H](O)[C@@]12F [Triamcinolone] | -0.83 | 1.58 | 0.81 | -0.82 | 0.02 | 1.12 | 0.04 | 0.82 | 0.94
38 | CC(NCCc1ccc(O)cc1)C(O)c1ccc(O)cc1 (stereo unspecified) [Ritodrine (hydrochloride)] | -0.25 | 0.64 | 0.55 | -0.13 | 0.72 | 0.18 | -0.01 | 1.26 | 0.06
39 | CC1(C)O[C@@H]2C[C@H]3[C@@H]4CCC5=CC(=O)C=C[C@]5(C)[C@@]4(F)[C@@H](O)C[C@]3(C)[C@]2(C(=O)CO)O1 [Triamcinolone (acetonide)] | -1.9 | 1.7 | -0.33 | -1.83 | 0.98 | -2.18 | -1.69 | 1.39 | -1.2

— the supplement of paper PMC7411640
